{"source": "patent US9308215B2", "about": "“Avermectins and milbemycins as anti-mycobacterial agents” (priority 2013, dated 2016)", "test_system": "M. tuberculosis", "assay_type": "cell-based, Mycobacterium tuberculosis", "note": "At least one compound was matched to its structure with a doubt left.", "data": [{"smiles": "CO/N=C1\\C[C@]2(C[C@@H]3C[C@@H](C/C=C(\\C)C[C@@H](C)/C=C/C=C4\\CO[C@@H]5[C@H](O)C(C)=C[C@@H](C(=O)O3)[C@]45O)O2)O[C@H](/C(C)=C/C(C)C)[C@H]1C", "note": "[Moxidectin]", "values": [{"measurement": "activity in dose response curves compared to ivermectin and doramectin", "setting": "M. tuberculosis H37Rv and an MDR clinical isolate (FIG. 10)", "value": "increased activity"}, {"measurement": "sensitivity of the ivermectin-less-sensitive strains", "setting": "strains CI15072, CI12081, BC-MDR2, BC-DS4 and BC-DS5", "value": "unaffected"}]}]}
